Experimental findings from article PMC3808384 are described below.

In test [1] the target is HA tagged hERG1a N861I (human) (UniProt Q12809). The test can be described thus: co-IP; HA tagged hERG1a mutants transfected into stable hERG1a-FLAG HEK293 cells; lysate in TBS + 1% NP40; precipitated with HA.11 anti-HA antibody and protein G Sepharose at 4°C; blot probed with anti-HA and anti-FLAG.
The target of test [2] is HA tagged hERG1a N861H (human) (UniProt Q12809). The description is as above.

These are yes or no findings as the source states them, for the method shown. Binding seen in cells or lysates may run through a third protein. Some entries that bind do so weakly or less than the wild type.

On to “hERG1a-FLAG (wild-type Kv11.1 channel subunit) (from UniProt Q12809 1-1159)”, for which the binding entry in test [1] and in test [2] was “binds” each time.
